Measurements reported in patent US12048281B2, “Method for treating post-emergent rice” (BASF SE, priority 2009, dated 2024).

Key:
[1] = tested on: rice calli; assay: Tissue culture selection of herbicide-tolerant mutant rice lines from calli; assay type: cell-based, Oryza sativa; conditions: for Rate: mutants per # calli; for lines confirmed as mutants: share of recovered lines when selection was on this herbicide
[2] = tested on: maize callus; conditions: stepwise selection at 0.5, 1.0, 2.0, 5.0 and 10 μM, cited from earlier work
[3] = Total over genotypes for this selection agent
[4] = genotype Indica 1, mutant lines per gram of callus
[5] = genotype Indica 1, number of mutant lines recovered with this selection agent

| SMILES | #/gm callus [1, 3] | #/gm callus [1, 4] | Mutants [1, 5] | #/gm callus ([1]; genotype Koshi (Koshihikari)) | Mutants ([1]; genotype Koshi (Koshihikari)) | #/gm callus ([1]; genotype NB (Nipponbare)) | Mutants ([1]; genotype NB (Nipponbare)) | Rate ([1]; genotype NB (Nipponbare)) | #/gm callus ([1]; genotype T309 (Taipei 309)) | Mutants ([1]; genotype T309 (Taipei 309)) | lines confirmed as mutants [1] | Rate ([1]; genotype T309 (Taipei 309)) | calculated mutation rate ([2]; 100 g of callus) | calculated mutation rate [2] |
| --- | --- | --- | --- | --- | --- | --- | --- | --- | --- | --- | --- | --- | --- | --- |
| CCCC(=NOCC)C1=C(O)CC(C2CCCSC2)CC1=O (centres unmarked) [cycloxydim] | 0.09 #/gm callus | 0.07 #/gm callus | 3 | 0.15 #/gm callus | 6 | 0.01 #/gm callus | 1 | 0.029% | 0.20 #/gm callus | 8 | 68% | – | – | – |
| CCC/C(=N\OCC)C1=C(O)CC(CC(C)SCC)CC1=O (centres unmarked) [sethoxydim] | 0.03 #/gm callus | 0.05 #/gm callus | 3 | – | – | 0.00 #/gm callus | 0 | 0.000% | 0.00 #/gm callus | 0 | 21% | 0.000% | 0.02 lines/g | 2 lines/100 g of callus |

Like-named read-outs stand apart in the source and are kept apart here.
